Measured values reported in PMC3286403.

Tests used:
[1] = biological target: His6-tagged HIV-1 integrase K188Q (HIV-1); assay: AlphaScreen or HTRF; HTRF; His-IN 80 nM, GST-LEDGF/p75 or GST-TNPO3 5 nM, anti-GST-Europium Cryptate and anti-His-XL665; 25 mM Hepes pH 7.3, 150 mM NaCl, 2 mM MgCl2, 0.1% BSA, 1 mM DTT; read 2 h after incubation; signal as percent of IN WT ΔF; both purified
[2] = biological target: His-tagged HIV-1 integrase Y194A (HIV-1); assay: as above

B1: GST-TNPO3 full length (protein, UniProt Q9Y5L0 1-923)
chain: MEGAKPTLQLVYQAVQALYHDPDPSGKERASFWLGELQRSVHAWEISDQLLQIRQDVESCYFAAQTMKMKIQTSFYELPTDSHASLRDSLLTHIQNLKDLSPVIVTQLALAIADLALQMPSWKGCVQTLVEKYSNDVTSLPFLLEILTVLPEEVHSRSLRIGANRRTEIIEDLAFYSSTVVSLLMTCVEKAGTDEKMLMKVFRCLGSWFNLGVLDSNFMANNKLLALLFEVLQQDKTSSNLHEAASDCVCSALYAIENVETNLPLAMQLFQGVLTLETAYHMAVAREDLDKVLNYCRIFTELCETFLEKIVCTPGQGLGDLRTLELLLICAGHPQYEVVEISFNFWYRLGEHLYKTNDEVIHGIFKAYIQRLLHALARHCQLEPDHEGVPEETDDFGEFRMRVSDLVKDLIFLIGSMECFAQLYSTLKEGNPPWEVTEAVLFIMAAIAKSVDPENNPTLVEVLEGVVRLPETVHTAVRYTSIELVGEMSEVVDRNPQFLDPVLGYLMKGLCEKPLASAAAKAIHNICSVCRDHMAQHFNGLLEIARSLDSFLLSPEAAVGLLKGTALVLARLPLDKITECLSELCSVQVMALKKLLSQEPSNGISSDPTVFLDRLAVIFRHTNPIVENGQTHPCQKVIQEIWPVLSETLNKHRADNRIVERCCRCLRFAVRCVGKGSAALLQPLVTQMVNVYHVHQHSCFLYLGSILVDEYGMEEGCRQGLLDMLQALCIPTFQLLEQQNGLQNHPDTVDDLFRLATRFIQRSPVTLLRSQVVIPILQWAIASTTLDHRDANCSVMRFLRDLIHTGVANDHEEDFELRKELIGQVMNQLGQQLVSQLLHTCCFCLPPYTLPDVAEVLWEIMQVDRPTFCRWLENSLKGLPKETTVGAVTVTHKQLTDFHKQVTSAEECKQVCWALRDFTRLFR
**Q.** For B1, which binding [1] is on record?
**A.** The binding was “binds”.

**Q.** And the binding [2]?
**A.** The binding was “binds”.

Results are given in words; binding and its absence hold for the method and conditions named. A result given as binding can be weak or reduced; the word gives no strength. Sequences can lack the tags named with a protein.
